Results from patent US5180716A, “Cyclodextrin complexes for neuraxial administration of drugs” (The Regents of the University of California, priority 1990, dated 1993).

Key:
[1] = rat, in vivo
[2] = in vivo; conditions: rat
[3] = in vivo; conditions: rat; remark: listed apart in the source

CN1CC[C@]23c4c5ccc(O)c4O[C@H]2[C@@H](O)C=C[C@H]3[C@H]1C5.O=S(=O)(O)O [Morphine, morphine sulfate]
ordering of effects (AUC) by cyclodextrin concentration [1]: 0.02%, 20%, 0.002%, 2%, saline
concentration at 5 min [2]: 53.7 ng/mL
concentration at 5 min [3]: 411000 µg/mL
